Some entries share one result that the patent states for a list of compounds.
Tested on: HSV-1
Assay: Virucidal activity against HSV-1 in culture medium (MM)
Type: cell-based, Herpes simplex virus type 1
Settings: lipid in MM, 1 minute; Table 2

CCCCCCCCCCCC(=O)O [Lauric acid, lauric acid]
inactivation of HSV-1: greater than 10^5 fold

Source: patent US6596763B1, “Topical formulations containing as a therapeutic active agent fatty acids or fatty alcohols or monoglyceride derivatives thereof for treating of mucosa infections” (priority 1996, dated 2003)
